Publication PMC12635394, “UBE2O-mediated ubiquitylation directs cytoplasmic CTNNA1 to promote cell-to-ECM adhesions” (EMBO Reports, 2025)

The chains behind the UniProt entries cited, without tags or fusion partners.
UniProt P26231: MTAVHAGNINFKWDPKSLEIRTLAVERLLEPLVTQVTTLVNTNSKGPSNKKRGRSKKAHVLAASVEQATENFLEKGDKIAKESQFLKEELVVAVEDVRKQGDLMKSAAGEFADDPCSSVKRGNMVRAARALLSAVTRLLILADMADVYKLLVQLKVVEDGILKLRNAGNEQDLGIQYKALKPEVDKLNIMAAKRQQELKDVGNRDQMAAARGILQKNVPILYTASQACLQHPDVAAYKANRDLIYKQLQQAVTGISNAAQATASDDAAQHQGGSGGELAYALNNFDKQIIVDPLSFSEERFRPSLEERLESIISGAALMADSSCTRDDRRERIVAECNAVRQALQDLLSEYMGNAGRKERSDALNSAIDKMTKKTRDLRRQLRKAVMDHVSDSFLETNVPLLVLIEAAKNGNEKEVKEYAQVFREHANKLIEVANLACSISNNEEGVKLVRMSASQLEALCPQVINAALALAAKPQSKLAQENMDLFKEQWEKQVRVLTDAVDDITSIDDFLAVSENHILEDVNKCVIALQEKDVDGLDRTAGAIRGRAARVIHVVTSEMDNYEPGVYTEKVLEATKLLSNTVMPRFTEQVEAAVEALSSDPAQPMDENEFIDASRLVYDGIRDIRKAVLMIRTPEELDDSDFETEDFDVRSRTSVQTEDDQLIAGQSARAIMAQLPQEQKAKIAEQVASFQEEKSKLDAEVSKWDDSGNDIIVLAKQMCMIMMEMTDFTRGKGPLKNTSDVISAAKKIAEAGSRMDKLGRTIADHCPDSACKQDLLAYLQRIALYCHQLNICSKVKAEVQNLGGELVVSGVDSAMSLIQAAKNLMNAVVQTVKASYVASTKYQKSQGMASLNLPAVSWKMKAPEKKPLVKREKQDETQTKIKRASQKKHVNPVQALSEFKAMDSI
UniProt P35222: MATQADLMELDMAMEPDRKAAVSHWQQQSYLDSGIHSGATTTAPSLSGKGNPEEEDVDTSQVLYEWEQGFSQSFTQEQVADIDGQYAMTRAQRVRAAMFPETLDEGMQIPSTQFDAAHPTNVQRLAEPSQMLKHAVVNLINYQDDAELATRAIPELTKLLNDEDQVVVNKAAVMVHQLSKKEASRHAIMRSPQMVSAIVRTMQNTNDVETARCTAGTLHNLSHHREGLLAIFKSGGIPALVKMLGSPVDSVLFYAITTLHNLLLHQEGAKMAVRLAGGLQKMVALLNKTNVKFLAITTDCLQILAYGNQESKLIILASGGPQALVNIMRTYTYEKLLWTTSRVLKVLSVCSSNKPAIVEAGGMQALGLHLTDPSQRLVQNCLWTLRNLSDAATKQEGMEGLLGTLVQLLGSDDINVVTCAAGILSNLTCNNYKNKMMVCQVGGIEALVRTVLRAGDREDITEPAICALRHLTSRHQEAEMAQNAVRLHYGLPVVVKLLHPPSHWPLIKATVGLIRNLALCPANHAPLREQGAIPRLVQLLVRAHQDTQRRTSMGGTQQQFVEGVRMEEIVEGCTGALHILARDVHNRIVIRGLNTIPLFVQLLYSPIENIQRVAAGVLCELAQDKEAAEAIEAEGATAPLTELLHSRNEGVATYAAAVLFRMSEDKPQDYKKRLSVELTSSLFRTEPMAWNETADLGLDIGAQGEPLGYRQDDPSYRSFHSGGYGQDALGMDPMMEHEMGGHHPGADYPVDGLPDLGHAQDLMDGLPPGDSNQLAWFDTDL
UniProt Q9NR09: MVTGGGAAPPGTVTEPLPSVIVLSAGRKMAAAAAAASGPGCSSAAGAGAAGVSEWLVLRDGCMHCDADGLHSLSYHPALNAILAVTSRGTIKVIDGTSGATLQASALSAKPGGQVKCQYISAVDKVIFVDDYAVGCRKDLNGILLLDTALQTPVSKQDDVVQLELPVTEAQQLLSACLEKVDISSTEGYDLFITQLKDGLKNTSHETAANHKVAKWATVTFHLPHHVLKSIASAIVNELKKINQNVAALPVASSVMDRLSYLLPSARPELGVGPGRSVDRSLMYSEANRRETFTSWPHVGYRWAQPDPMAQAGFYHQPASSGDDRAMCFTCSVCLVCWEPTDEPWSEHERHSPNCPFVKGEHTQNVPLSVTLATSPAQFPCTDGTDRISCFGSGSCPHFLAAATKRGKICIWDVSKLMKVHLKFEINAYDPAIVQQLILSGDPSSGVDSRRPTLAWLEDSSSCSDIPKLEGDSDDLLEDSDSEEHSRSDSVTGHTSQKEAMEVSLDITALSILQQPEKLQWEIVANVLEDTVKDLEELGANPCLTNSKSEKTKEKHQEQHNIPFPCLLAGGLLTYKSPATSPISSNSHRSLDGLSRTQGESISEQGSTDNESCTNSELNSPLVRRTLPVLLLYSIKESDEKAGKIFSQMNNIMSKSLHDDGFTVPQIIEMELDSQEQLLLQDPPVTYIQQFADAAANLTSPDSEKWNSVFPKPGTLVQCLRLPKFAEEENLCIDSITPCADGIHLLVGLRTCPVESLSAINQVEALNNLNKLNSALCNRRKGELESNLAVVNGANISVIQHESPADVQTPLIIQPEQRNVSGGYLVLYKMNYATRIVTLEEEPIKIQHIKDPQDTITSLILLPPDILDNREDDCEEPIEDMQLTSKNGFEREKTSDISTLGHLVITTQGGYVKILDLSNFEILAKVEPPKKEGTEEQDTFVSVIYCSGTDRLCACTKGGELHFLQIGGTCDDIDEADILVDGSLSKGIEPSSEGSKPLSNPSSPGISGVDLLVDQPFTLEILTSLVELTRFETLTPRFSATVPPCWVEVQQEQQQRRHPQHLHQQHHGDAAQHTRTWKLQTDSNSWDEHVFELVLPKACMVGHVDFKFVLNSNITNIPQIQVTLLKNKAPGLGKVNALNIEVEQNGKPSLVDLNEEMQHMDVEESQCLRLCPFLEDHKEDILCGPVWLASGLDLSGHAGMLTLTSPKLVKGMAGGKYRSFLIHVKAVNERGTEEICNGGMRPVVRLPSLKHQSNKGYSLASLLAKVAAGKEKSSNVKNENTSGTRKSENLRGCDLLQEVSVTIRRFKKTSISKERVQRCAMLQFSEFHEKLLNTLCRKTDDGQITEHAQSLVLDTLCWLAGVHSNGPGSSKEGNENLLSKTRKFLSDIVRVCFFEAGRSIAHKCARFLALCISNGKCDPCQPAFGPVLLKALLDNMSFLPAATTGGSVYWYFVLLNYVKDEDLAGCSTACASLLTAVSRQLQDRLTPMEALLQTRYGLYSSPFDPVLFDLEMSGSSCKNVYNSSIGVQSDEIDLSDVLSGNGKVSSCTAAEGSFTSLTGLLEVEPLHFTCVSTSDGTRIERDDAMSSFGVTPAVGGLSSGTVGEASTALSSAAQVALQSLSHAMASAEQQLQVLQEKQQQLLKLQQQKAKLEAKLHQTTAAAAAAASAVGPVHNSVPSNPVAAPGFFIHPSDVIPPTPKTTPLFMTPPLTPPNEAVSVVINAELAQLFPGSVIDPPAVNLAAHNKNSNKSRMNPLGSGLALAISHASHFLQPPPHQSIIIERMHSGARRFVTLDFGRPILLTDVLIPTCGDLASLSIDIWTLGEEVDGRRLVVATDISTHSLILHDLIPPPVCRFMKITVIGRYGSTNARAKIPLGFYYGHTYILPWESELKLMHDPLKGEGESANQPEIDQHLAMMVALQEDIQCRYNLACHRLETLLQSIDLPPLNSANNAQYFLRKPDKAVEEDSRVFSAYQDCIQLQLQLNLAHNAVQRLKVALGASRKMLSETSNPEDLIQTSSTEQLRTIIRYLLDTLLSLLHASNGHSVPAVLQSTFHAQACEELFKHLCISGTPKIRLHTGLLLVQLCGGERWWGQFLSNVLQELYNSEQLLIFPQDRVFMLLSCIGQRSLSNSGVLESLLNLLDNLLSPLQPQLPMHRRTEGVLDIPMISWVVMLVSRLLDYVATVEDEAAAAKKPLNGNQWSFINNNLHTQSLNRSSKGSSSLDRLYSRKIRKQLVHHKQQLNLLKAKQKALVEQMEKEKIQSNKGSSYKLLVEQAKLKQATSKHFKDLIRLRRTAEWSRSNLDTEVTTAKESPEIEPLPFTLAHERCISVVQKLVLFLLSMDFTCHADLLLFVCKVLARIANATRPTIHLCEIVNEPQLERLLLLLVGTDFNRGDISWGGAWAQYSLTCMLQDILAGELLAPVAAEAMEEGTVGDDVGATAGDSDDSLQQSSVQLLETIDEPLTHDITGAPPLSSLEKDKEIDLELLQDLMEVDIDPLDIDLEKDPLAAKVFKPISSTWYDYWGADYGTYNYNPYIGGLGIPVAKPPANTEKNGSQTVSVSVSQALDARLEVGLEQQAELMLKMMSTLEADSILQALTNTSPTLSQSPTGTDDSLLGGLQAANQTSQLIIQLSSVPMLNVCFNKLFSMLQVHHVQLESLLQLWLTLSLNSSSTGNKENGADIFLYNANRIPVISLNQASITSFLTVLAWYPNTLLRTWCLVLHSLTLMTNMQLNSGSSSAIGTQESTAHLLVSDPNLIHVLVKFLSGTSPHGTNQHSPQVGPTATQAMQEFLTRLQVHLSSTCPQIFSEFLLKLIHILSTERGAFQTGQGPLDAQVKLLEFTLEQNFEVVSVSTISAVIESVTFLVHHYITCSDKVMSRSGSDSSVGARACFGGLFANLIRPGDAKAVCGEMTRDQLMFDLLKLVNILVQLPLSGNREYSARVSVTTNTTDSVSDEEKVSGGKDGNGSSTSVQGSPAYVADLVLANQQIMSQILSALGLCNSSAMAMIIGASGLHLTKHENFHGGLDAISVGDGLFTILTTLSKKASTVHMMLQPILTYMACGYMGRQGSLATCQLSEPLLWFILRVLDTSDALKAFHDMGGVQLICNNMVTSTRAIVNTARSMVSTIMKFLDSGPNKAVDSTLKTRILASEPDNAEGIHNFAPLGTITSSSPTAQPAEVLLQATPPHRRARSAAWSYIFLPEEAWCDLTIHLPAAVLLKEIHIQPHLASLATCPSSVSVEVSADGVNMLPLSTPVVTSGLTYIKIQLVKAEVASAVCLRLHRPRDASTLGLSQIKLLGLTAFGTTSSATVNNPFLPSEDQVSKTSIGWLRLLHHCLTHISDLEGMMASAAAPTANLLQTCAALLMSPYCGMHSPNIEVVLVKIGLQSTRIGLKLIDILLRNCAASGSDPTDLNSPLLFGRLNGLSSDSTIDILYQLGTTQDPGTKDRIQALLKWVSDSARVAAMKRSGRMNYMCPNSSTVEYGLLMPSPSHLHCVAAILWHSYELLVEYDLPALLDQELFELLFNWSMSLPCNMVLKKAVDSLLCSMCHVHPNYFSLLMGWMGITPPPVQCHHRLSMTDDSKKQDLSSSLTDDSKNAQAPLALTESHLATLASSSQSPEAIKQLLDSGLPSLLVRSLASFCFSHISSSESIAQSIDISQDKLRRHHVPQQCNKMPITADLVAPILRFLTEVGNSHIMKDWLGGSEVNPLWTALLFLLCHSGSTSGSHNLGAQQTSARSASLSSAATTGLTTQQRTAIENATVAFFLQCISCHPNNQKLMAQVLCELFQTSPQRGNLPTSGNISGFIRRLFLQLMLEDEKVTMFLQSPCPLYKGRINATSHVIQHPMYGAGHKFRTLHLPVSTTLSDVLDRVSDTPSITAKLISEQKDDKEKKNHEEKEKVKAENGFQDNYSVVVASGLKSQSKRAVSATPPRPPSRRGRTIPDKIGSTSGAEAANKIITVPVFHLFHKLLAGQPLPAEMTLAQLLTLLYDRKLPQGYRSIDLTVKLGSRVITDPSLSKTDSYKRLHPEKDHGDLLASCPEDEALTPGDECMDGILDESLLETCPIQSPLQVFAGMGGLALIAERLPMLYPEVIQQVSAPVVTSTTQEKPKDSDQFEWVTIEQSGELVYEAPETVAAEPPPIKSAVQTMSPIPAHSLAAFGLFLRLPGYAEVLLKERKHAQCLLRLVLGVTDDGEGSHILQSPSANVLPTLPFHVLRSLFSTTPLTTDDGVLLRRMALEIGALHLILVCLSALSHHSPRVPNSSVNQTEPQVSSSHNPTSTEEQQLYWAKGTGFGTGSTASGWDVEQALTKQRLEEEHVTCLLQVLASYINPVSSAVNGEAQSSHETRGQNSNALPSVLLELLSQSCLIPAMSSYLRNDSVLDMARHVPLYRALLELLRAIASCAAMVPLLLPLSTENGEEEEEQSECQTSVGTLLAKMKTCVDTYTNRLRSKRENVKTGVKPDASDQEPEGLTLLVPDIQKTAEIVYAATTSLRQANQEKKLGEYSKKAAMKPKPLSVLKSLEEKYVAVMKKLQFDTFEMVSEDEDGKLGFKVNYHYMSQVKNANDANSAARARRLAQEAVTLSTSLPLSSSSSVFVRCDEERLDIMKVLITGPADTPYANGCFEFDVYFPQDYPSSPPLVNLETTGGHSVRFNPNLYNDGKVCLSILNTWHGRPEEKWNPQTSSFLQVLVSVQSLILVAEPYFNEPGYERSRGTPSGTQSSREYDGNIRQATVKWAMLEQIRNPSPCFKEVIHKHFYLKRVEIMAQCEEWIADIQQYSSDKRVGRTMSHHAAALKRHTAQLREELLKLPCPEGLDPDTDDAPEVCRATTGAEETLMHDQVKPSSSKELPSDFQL

Tests used:
[1] = biological target: Flag-tagged CTNNA1 (full-length mouse Ctnna1) (mouse) (UniProt P26231); test: affinity purification with mass spectrometry; Flag-CTNNA1 transiently overexpressed in HEK293T, immunoprecipitation with Flag beads, on-bead trypsin digestion, label-free quantification (fold change >2 and P < 0.05)
[2] = biological target: endogenous CTNNA1 of mouse embryonic fibroblasts (mouse (endogenous in MEFs)) (UniProt P26231); test: affinity purification with mass spectrometry; endogenous CTNNA1 precipitated with rabbit anti-CTNNA1 (or rabbit IgG) from lysates of shLuciferase or shUbe2o MEFs, on-bead digestion, label-free quantification
[3] = biological target: CTNNA1-V5 (purified mouse CTNNA1 with C-terminal V5 tag) (mouse) (UniProt P26231); test: affinity purification with mass spectrometry; ctrl, CTNNA1-V5 (no ATP) or ubiquitylated CTNNA1-V5 baits on V5-Trap magnetic agarose, incubated with cell lysate overnight at 4 °C, on-bead digestion, label-free quantification; only the target purified

| Molecule | binding [1] | binding [3] | further results |
| --- | --- | --- | --- |
| endogenous β-catenin (CTNNB1) of HEK293T cells (from UniProt P35222 1-781) | binds | – | – |
| endogenous β-catenin of mouse embryonic fibroblasts (from UniProt Q02248 1-781) | – | – | binding [2]: binds |
| endogenous RAD18 of HEK293T cells (from UniProt Q9NS91 1-495) (enzyme) | binds | – | – |
| CTNNA2 of the cell lysate used for the ubiquitylated-CTNNA1 interactome (protein, UniProt P26232 1-953) MTSATSPIILKWDPKSLEIRTLTVERLLEPLVTQVTTLVNTSNKGPSGKKKGRSKKAHVLAASVEQATQNFLEKGEQIAKESQDLKEELVAAVEDVRKQGETMRIASSEFADDPCSSVKRGTMVRAARALLSAVTRLLILADMADVMRLLSHLKIVEEALEAVKNATNEQDLANRFKEFGKEMVKLNYVAARRQQELKDPHCRDEMAAARGALKKNATMLYTASQAFLRHPDVAATRANRDYVFKQVQEAIAGISNAAQATSPTDEAKGHTGIGELAAALNEFDNKIILDPMTFSEARFRPSLEERLESIISGAALMADSSCTRDDRRERIVAECNAVRQALQDLLSEYMNNTGRKEKGDPLNIAIDKMTKKTRDLRRQLRKAVMDHISDSFLETNVPLLVLIEAAKSGNEKEVKEYAQVFREHANKLVEVANLACSISNNEEGVKLVRMAATQIDSLCPQVINAALTLAARPQSKVAQDNMDVFKDQWEKQVRVLTEAVDDITSVDDFLSVSENHILEDVNKCVIALQEGDVDTLDRTAGAIRGRAARVIHIINAEMENYEAGVYTEKVLEATKLLSETVMPRFAEQVEVAIEALSANVPQPFEENEFIDASRLVYDGVRDIRKAVLMIRTPEELEDDSDFEQEDYDVRSRTSVQTEDDQLIAGQSARAIMAQLPQEEKAKIAEQVEIFHQEKSKLDAEVAKWDDSGNDIIVLAKQMCMIMMEMTDFTRGKGPLKNTSDVINAAKKIAEAGSRMDKLARAVADQCPDSACKQDLLAYLQRIALYCHQLNICSKVKAEVQNLGGELIVSGTGVQSTFTTFYEVDCDVIDGGRASQLSTHLPTCAEGAPIGSGSSDSSMLDSATSLIQAAKNLMNAVVLTVKASYVASTKYQKVYGTAAVNSPVVSWKMKAPEKKPLVKREKPEEFQTRVRRGSQKKHISPVQALSEFKAMDSF | – | binds | – |

The next lines start with results.

| binding [1] | binding [3] | Molecule | further results |
| --- | --- | --- | --- |
| – | binds | β-catenin of the cell lysate used for the ubiquitylated-CTNNA1 interactome (from UniProt P35222 1-781) | – |
| – | binds | CTNNA1 of the cell lysate used for the ubiquitylated-CTNNA1 interactome (from UniProt P35221 1-906) | – |
| binds | – | endogenous BIRC6 of HEK293T cells (from UniProt Q9NR09 1-4857) (enzyme) | – |
| binds | – | endogenous USP36 of HEK293T cells (enzyme, UniProt Q9P275 1-1123) MPIVDKLKEALKPGRKDSADDGELGKLLASSAKKVLLQKIEFEPASKSFSYQLEALKSKYVLLNPKTEGASRHKSGDDPPARRQGSEHTYESCGDGVPAPQKVLFPTERLSLRWERVFRVGAGLHNLGNTCFLNATIQCLTYTPPLANYLLSKEHARSCHQGSFCMLCVMQNHIVQAFANSGNAIKPVSFIRDLKKIARHFRFGNQEDAHEFLRYTIDAMQKACLNGCAKLDRQTQATTLVHQIFGGYLRSRVKCSVCKSVSDTYDPYLDVALEIRQAANIVRALELFVKADVLSGENAYMCAKCKKKVPASKRFTIHRTSNVLTLSLKRFANFSGGKITKDVGYPEFLNIRPYMSQNNGDPVMYGLYAVLVHSGYSCHAGHYYCYVKASNGQWYQMNDSLVHSSNVKVVLNQQAYVLFYLRIPGSKKSPEGLISRTGSSSLPGRPSVIPDHSKKNIGNGIISSPLTGKRQDSGTMKKPHTTEEIGVPISRNGSTLGLKSQNGCIPPKLPSGSPSPKLSQTPTHMPTILDDPGKKVKKPAPPQHFSPRTAQGLPGTSNSNSSRSGSQRQGSWDSRDVVLSTSPKLLATATANGHGLKGNDESAGLDRRGSSSSSPEHSASSDSTKAPQTPRSGAAHLCDSQETNCSTAGHSKTPPSGADSKTVKLKSPVLSNTTTEPASTMSPPPAKKLALSAKKASTLWRATGNDLRPPPPSPSSDLTHPMKTSHPVVASTWPVHRARAVSPAPQSSSRLQPPFSPHPTLLSSTPKPPGTSEPRSCSSISTALPQVNEDLVSLPHQLPEASEPPQSPSEKRKKTFVGEPQRLGSETRLPQHIREATAAPHGKRKRKKKKRPEDTAASALQEGQTQRQPGSPMYRREGQAQLPAVRRQEDGTQPQVNGQQVGCVTDGHHASSRKRRRKGAEGLGEEGGLHQDPLRHSCSPMGDGDPEAMEESPRKKKKKKRKQETQRAVEEDGHLKCPRSAKPQDAVVPESSSCAPSANGWCPGDRMGLSQAPPVSWNGERESDVVQELLKYSSDKAYGRKVLTWDGKMSAVSQDAIEDSRQARTETVVDDWDEEFDRGKEKKIKKFKREKRRNFNAFQKLQTRRNFWSVTHPAKAASLSYRR | – |
| binds | – | endogenous human UBE2O (enzyme, UniProt Q9C0C9 1-1292) MADPAAPTPAAPAPAQAPAPAPEAVPAPAAAPVPAPAPASDSASGPSSDSGPEAGSQRLLFSHDLVSGRYRGSVHFGLVRLIHGEDSDSEGEEEGRGSSGCSEAGGAGHEEGRASPLRRGYVRVQWYPEGVKQHVKETKLKLEDRSVVPRDVVRHMRSTDSQCGTVIDVNIDCAVKLIGTNCIIYPVNSKDLQHIWPFMYGDYIAYDCWLGKVYDLKNQIILKLSNGARCSMNTEDGAKLYDVCPHVSDSGLFFDDSYGFYPGQVLIGPAKIFSSVQWLSGVKPVLSTKSKFRVVVEEVQVVELKVTWITKSFCPGGTDSVSPPPSVITQENLGRVKRLGCFDHAQRQLGERCLYVFPAKVEPAKIAWECPEKNCAQGEGSMAKKVKRLLKKQVVRIMSCSPDTQCSRDHSMEDPDKKGESKTKSEAESASPEETPDGSASPVEMQDEGAEEPHEAGEQLPPFLLKEGRDDRLHSAEQDADDEAADDTDDTSSVTSSASSTTSSQSGSGTSRKKSIPLSIKNLKRKHKRKKNKITRDFKPGDRVAVEVVTTMTSADVMWQDGSVECNIRSNDLFPVHHLDNNEFCPGDFVVDKRVQSCPDPAVYGVVQSGDHIGRTCMVKWFKLRPSGDDVELIGEEEDVSVYDIADHPDFRFRTTDIVIRIGNTEDGAPHKEDEPSVGQVARVDVSSKVEVVWADNSKTIILPQHLYNIESEIEESDYDSVEGSTSGASSDEWEDDSDSWETDNGLVEDEHPKIEEPPIPPLEQPVAPEDKGVVISEEAATAAVQGAVAMAAPMAGLMEKAGKDGPPKSFRELKEAIKILESLKNMTVEQLLTGSPTSPTVEPEKPTREKKFLDDIKKLQENLKKTLDNVAIVEEEKMEAVPDVERKEDKPEGQSPVKAEWPSETPVLCQQCGGKPGVTFTSAKGEVFSVLEFAPSNHSFKKIEFQPPEAKKFFSTVRKEMALLATSLPEGIMVKTFEDRMDLFSALIKGPTRTPYEDGLYLFDIQLPNIYPAVPPHFCYLSQCSGRLNPNLYDNGKVCVSLLGTWIGKGTERWTSKSSLLQVLISIQGLILVNEPYYNEAGFDSDRGLQEGYENSRCYNEMALIRVVQSMTQLVRRPPEVFEQEIRQHFSTGGWRLVNRIESWLETHALLEKAQALPNGVPKASSSPEPPAVAELSDSGQQEPEDGGPAPGEASQGSDSEGGAQGLASASRDHTDQTSETAPDASVPPSVKPKKRRKSYRSFLPEKSGYPDIGFPLFPLSKGFIKSIRGVLTQFRAALLEAGMPECTEDK | – |

These are yes or no findings as the source states them, for the method shown. Binding seen in cells or lysates may run through a third protein. Here binding means that the protein was enriched with, or labelled near, the bait; the list need not be complete.
